For at least one compound, name, drawing or mass did not settle the structure.
Test system: human CD14+ monocytes
Experiment: Supernatant transfer from 293T cGAS ENPP1low cells to primary CD14+ monocytes, IFNB1 RT-PCR
Type: cell-based

COc1cc2ncnc(N3CCC(CCP(=O)(O)O)CC3)c2cc1OC [Compound 1, dimethyl (2-(1-(6,7-dimethoxyquinazolin-4-yl)piperidin-4-yl)ethyl)phosphonic acid]
extracellular cGAMP levels (293T cGAS ENPP1low cells overexpressing ENPP1): rescued | CD14+ IFNB1 expression (supernatant of 293T cGAS ENPP1low cells overexpressing ENPP1 transferred to CD14+ monocytes): induced

— patent publication US11707471B2, “ENPP1 inhibitors and their use for the treatment of cancer” (The Board of Trustees of the Leland Stanford Junior …, priority 2017, dated 2023)
